These are yes or no findings as the source states them, for the method shown. Binding seen in cells or lysates may run through a third protein. Some binding calls cover weakened binding; strength is not graded here.
Target: Forkhead Box P1 (FOXP1), endogenous in C2C12 (mouse (endogenous in C2C12)) (UniProt P58462)
Assay: co-IP; nuclear lysates of C2C12 myocytes differentiated by serum withdrawal (48 hr in the text, 3 days in the legend), mild nonionic detergent; precipitated with anti-FOXP1 Ab, blotted with anti-MyoD Ab

Chains of the proteins cited; added tags and fusions are not shown.
UniProt P58462: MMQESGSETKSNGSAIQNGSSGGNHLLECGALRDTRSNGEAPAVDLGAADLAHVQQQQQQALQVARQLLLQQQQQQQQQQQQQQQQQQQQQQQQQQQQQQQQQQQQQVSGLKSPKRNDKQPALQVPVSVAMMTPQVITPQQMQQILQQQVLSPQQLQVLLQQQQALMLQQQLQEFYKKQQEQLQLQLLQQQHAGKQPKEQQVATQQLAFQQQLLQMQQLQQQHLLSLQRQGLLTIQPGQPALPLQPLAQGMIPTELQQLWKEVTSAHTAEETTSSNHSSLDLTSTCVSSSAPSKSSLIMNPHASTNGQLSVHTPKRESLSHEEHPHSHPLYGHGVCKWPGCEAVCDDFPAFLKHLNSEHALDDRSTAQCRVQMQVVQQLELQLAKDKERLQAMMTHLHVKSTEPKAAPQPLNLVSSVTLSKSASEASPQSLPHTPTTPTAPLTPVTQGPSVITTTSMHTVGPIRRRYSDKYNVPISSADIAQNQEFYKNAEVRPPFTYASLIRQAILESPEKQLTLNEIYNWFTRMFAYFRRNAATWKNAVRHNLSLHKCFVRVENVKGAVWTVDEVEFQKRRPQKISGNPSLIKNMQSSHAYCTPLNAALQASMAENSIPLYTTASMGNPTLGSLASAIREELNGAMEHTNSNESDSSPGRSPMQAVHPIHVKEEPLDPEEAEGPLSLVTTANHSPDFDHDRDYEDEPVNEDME
UniProt P10085: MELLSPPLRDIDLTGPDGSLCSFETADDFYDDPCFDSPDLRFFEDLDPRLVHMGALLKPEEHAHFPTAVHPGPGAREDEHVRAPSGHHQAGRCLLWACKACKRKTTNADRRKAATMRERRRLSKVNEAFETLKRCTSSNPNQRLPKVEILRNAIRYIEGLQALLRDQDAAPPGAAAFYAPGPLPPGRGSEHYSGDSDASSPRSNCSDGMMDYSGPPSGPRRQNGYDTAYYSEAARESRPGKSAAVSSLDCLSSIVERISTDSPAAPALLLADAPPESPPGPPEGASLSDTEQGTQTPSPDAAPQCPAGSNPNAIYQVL

Question: With “Myoblast Determination protein 1 (MYOD1/MyoD), endogenous in C2C12 (from UniProt P10085 1-318)” as the substance, how does the binding read?
Answer: binds

Source: publication PMC7861563, “FOXP1 Interacts with MyoD to Repress its Transcription and Myoblast Conversion” (Journal of cellular signaling, 2021)
